Results taken from patent US20250134998A1, “T CELLS WITH CELL-SURFACE EXPRESSION OF ADENOSINE DEAMINASE AND USES THEREOF” (The Board of Trustees of the Leland Stanford Junior …, priority 2021, published 2025).
At least one structure is not confirmed: it was looked up by name or label, or the drawing left a doubt.

Tested on: CD39− HA CAR T cells
Experiment: Conversion of CD39− HA CAR T cells into CD39+
Format: cell-based, human
Conditions: CD39-depleted HA CAR-T cultures, 1 μM dasatinib, 7 days

For `Cc1nc(Nc2ncc(C(=O)Nc3c(C)cccc3Cl)s2)cc(N2CCN(CCO)CC2)n1` [dasatinib], the “ability to generate CD39+ HA CAR T cells” value was “severely affected”.
